For the series, the system named is pyrotinib metabolism in rat liver microsomes (RLMs). Briefly: In vitro drug-drug interaction study: azole inhibition of pyrotinib metabolism (M1 formation) in RLMs. The format is in vitro ADME, Sprague-Dawley (SD) rat. The settings on record: for inhibition type: Lineweaver-Burk plot; for α: indicative of inhibition type. The protocol:
The rats were anesthetized with 10% chloral hydrate after 12 h of starvation. […] The rat liver tissue was then accurately removed and transferred to Petri dishes at 0–4°C. The tissues were homogenized in 0.15 mol/L KCl-PBS buffer and stored at 4°C. The homogenate (CR30NX, Eppendorf, Germany) was centrifuged at 9000 rpm at 4°C for 30 min. The supernatant was transferred to another tube and was centrifuged at 105000 rpm at 4°C for 60 min. The precipitate containing liver microsomes was removed and suspended in 0.15 mol/L KCl-PBS buffer (containing 0.25 mol/L sucrose) and stored at −80°C for later use. The liver microsomal concentration was 8.838 mg/ml after the determination with the BCA protein quantification kit (Thermo Scientific, Waltham, MA, United States).
Waters Acquity UPLC I-Class (Waters, USA) was used to separate pyrotinib and midazolam. A binary solvent manager (BSM) and sample manager with a flow-through needle (SM-FTN) were used in the UPLC system. The metabolites’ effective separation was achieved using Acquity UPLC HSS T3 (100 × 2.1 mm, 1.8 μm particle size) (Waters Corporation, Milford, MA, USA) with a mobile phase of acetonitrile (solvent A) and 0.1% formic acid water containing 20 mmol ammonium acetate (solvent B). The gradient program was set as following: 0–0.3 min 10–30% A; 0.3–1 min 30–95% A; 1–2 min 95% A; 2–2.3 min 95–10% A. The mobile phase’s flow rate was 0.4 mL/min, the column temperature was set as 40 °C, and the injection volume was 2 μL. The XEVO TQD triple quadrupole mass spectrometer was equipped with an electrospray ionization (ESI) source, and the multiple reaction monitoring (MRM) mode was selected for quantification. The data were collected using the Mass lynx 4.1 software (Waters Corp.). Mass spectral data were obtained in positive electrospray mode (ESI+) in MRM mode. Nitrogen was used as desolvation (1000 L/h) and cone gases (50 L/h). The ion monitoring voltage conditions were as follows: capillary voltage, 2.5 kV; source temperature, 150°C; desolvation temperature, 500°C. Various reaction monitoring methods were used for quantitative analysis.
200 µl of the incubation mixture was set up as following: 0.3 mg/ml RLMs, 100 mM potassium phosphate buffer (pH 7.4), 1 mM NADPH, and three azole antifungal drugs. […] For fluconazole and itraconazole, the concentrations of them were all adjusted to 0.01, 0.1, 1, 5, 10, 50, and 100 µM. […] The ingredients were combined and pre-warmed for 5 min at 37°C. The reaction was initiated with NADPH and incubated at 37°C for 30 min. Then, 200 µl of acetonitrile-midazolam solution (containing midazolam 200 ng/ml) was added and the mixture was vortexed for 2 min to stop the reaction. After been centrifuged at 13000 rpm for 5 min, 2 µl aliquot of the supernatant was then used for the UPLC-MS/MS analysis.
GraphPad Prism 7.0 software (GraphPad Software Inc.) was used to calculate the enzyme kinetic parameters of substrates which include Vmax, Km, IC50, Ki, and αKi values. The enzyme inhibition mode was obtained using the Linear Lineweaver-Burk plots. The PK characteristics, maximal plasma concentration (Cmax), time to peak plasma concentration (Tmax), apparent volume of distribution (Vz/F), area under the plasma concentration-time curve (AUC), elimination half-life (t1/2), plasma clearance (Cl/F), and mean residence time (MRT), were calculated using DAS (Drug and Statistics) software (Version 3.2.8, The People’s Hospital of Lishui, China). […]

“Also recorded” adds a separate entry of the source.

With `CC(=O)N1CCN(c2ccc(OCC3COC(Cn4ccnc4)(c4ccc(Cl)cc4Cl)O3)cc2)CC1` (centres unmarked) [ketoconazole, Ketoconazole], the inhibition type result is “mixed-type inhibition of noncompetitive/competitive; also recorded: mixed inhibition type of noncompetitive/competitive”.
As for `CCC(C)n1ncn(-c2ccc(N3CCN(c4ccc(OCC5COC(Cn6cncn6)(c6ccc(Cl)cc6Cl)O5)cc4)CC3)cc2)c1=O` (centres unmarked) [itraconazole, Itraconazole], the inhibition type result is listed as “mixed-type inhibition of noncompetitive/competitive” and the α stood at 0.673.
On the same counts, the results for `OC(Cn1cncn1)(Cn1cncn1)c1ccc(F)cc1F` [fluconazole, Fluconazole] are “mixed-type inhibition of noncompetitive/uncompetitive” and 1.259.

Values taken from PMC9490176 (Frontiers in Pharmacology, 2022).
